The values below come from publication PMC7578860.

The assay addresses T1, F‐box/WD Repeat‐Containing Protein 2 (FBXW2), endogenous in mouse macrophages (mouse (endogenous in peritoneal macrophages and BMDMs)) (UniProt Q60584).
T1 sequence: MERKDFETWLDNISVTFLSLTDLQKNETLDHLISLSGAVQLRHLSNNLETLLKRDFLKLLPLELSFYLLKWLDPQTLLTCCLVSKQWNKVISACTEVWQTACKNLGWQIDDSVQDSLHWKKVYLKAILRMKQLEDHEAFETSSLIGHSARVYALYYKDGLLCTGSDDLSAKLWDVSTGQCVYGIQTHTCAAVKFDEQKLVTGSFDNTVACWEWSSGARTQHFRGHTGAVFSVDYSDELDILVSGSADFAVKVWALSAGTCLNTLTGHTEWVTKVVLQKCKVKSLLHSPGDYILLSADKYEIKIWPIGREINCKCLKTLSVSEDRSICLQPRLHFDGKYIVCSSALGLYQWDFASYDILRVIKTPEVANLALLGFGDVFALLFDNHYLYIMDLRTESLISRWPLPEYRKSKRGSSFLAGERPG
The assay is described as follows: affinity purification with mass spectrometry; co-IP of FBXW2 (against IgG) from cellular extracts of peritoneal macrophages of HFD-treated mice; silver-stained additional bands subjected to LC-MS/MS.

No constants are given. Whether binding was seen depends on the method and setting. Binding seen in cells or lysates may run through a third protein. These calls come from enrichment with a bait or labelling near it, and not all partners need be listed.

B1: KH‐type splicing regulatory protein (KSRP), endogenous in mouse macrophages (protein, UniProt Q3U0V1 1-748)
chain: MSDYNTGGPPPGPPPPAGGGGGAAGAGGGPPPGPPGAGDRGGGGPGGGGPGGGGASGGPSQPPGGGGPGIRKDAFADAVQRARQIAAKIGGDAATTVNNNTPDFGFGGQKRQLEDGDQPDSKKLASQGDSIGSQLGPIHPPPRTSMTEEYRVPDGMVGLIIGRGGEQINKIQQDSGCKVQISPDSGGLPERSVSLTGAPESVQKAKMMLDDIVSRGRGGPPGQFHDNANGGQNGTVQEIMIPAGKAGLVIGKGGETIKQLQERAGVKMILIQDGSQNTNVDKPLRIIGDPYKVQQACEMVMDILRERDQGGFGDRNEYGSRVGGGIDVPVPRHSVGVVIGRSGEMIKKIQNDAGVRIQFKQDDGTGPEKIAHIMGPPDRCEHAARIINDLLQSLRSGPPGPPGAPGMPPGGRGRGRGQGNWGPPGGEMTFSIPTHKCGLVIGRGGENVKAINQQTGAFVEISRQLPPNGDPNFKLFVIRGSPQQIDHAKQLIEEKIEGPLCPVGPGPGGPGPAGPMGPFNPGPFNQGPPGAPPHAGGPPPHQYPPQGWGNTYPQWQPPAPHDPNKAAAAATDPNAAWAAYYSHYYQQPPGPVPGPAPAPAAPPAQGEPPQPPPTGQSDYTKAWEEYYKKIGQQPQQPGAPPQQDYTKAWEEYYKKQAQVATGGGPGAPPGSQPDYSAAWAEYYRQQAAYYGQTPGPGGPQPPPTQQGQQQASGNCHPPPPPFSFQPPATVHPALVGSAGNPFPCGVCP
In the case of B1, the binding result is on record as “binds”.
